Values quoted from earlier work as cited in patent US20130303983A1, “COATED MEDICAL DEVICES INCLUDING A WATER-INSOLUBLE THERAPEUTIC AGENT” (COOK MEDICAL TECHNOLOGIES LLC, priority 2012, published 2013).
Some of these results come from one statement about several compounds together. For at least one compound, name, drawing or mass did not settle the structure.

Settings: in water; 'each known to have'

Water solubility, less than 10 micrograms/ml:
CO[C@H]1C[C@@H]2CC[C@@H](C)[C@@](O)(O2)C(=O)C(=O)N2CCCC[C@H]2C(=O)O[C@H]([C@H](C)C[C@@H]2CC[C@@H](OC(=O)C(C)(CO)CO)[C@H](OC)C2)CC(=O)[C@H](C)/C=C(\C)[C@@H](O)[C@@H](OC)C(=O)[C@H](C)C[C@H](C)/C=C/C=C/C=C/1C [temsirolimus]
CO[C@H]1C[C@@H]2CC[C@@H](C)[C@@](O)(O2)C(=O)C(=O)N2CCCC[C@H]2C(=O)O[C@H]([C@H](C)C[C@@H]2CC[C@H](n3cnnn3)[C@H](OC)C2)CC(=O)[C@H](C)/C=C(\C)[C@@H](O)[C@@H](OC)C(=O)[C@H](C)C[C@H](C)/C=C/C=C/C=C/1C [zotarolimus]
CO[C@H]1C[C@@H]2CC[C@@H](C)[C@@](O)(O2)C(=O)C(=O)N2CCCC[C@H]2C(=O)O[C@H]([C@H](C)C[C@@H]2CC[C@@H](O)[C@H](OC)C2)CC(=O)[C@H](C)/C=C(\C)[C@@H](O)[C@@H](OC)C(=O)[C@H](C)C[C@H](C)/C=C/C=C/C=C/1C [sirolimus]
CO[C@H]1C[C@@H]2CC[C@@H](C)[C@@](O)(O2)C(=O)C(=O)N2CCCC[C@H]2C(=O)O[C@H]([C@H](C)C[C@@H]2CC[C@@H](OCCO)[C@H](OC)C2)CC(=O)[C@H](C)/C=C(\C)[C@@H](O)[C@@H](OC)C(=O)[C@H](C)C[C@H](C)/C=C/C=C/C=C/1C [everolimus]
C=CC[C@@H]1/C=C(\C)C[C@H](C)C[C@H](OC)[C@H]2O[C@@](O)(C(=O)C(=O)N3CCCC[C@H]3C(=O)O[C@H](/C(C)=C/[C@@H]3CC[C@@H](O)[C@H](OC)C3)[C@H](C)[C@@H](O)CC1=O)[C@H](C)C[C@@H]2OC [tacrolimus]
CC[C@@H]1/C=C(\C)C[C@H](C)C[C@H](OC)[C@H]2O[C@@](O)(C(=O)C(=O)N3CCCC[C@H]3C(=O)O[C@H](/C(C)=C/[C@@H]3CC[C@H](Cl)[C@H](OC)C3)[C@H](C)[C@@H](O)CC1=O)[C@H](C)C[C@@H]2OC [pimecrolimus]
CO[C@@H]1C[C@H](C[C@@H](C)[C@@H]2CC(=O)[C@H](C)/C=C(\C)[C@@H](O)[C@@H](OC)C(=O)[C@H](C)C[C@H](C)/C=C/C=C/C=C(\C)[C@@H](O)C[C@@H]3CC[C@@H](C)[C@@](O)(O3)C(=O)C(=O)N3CCCC[C@H]3C(=O)O2)CC[C@H]1O [novolimus]
